Laboratory results from PMC11390955.
These are yes or no findings as the source states them, for the method shown. Some entries that bind do so weakly or less than the wild type.

Amino acid sequences for entries named in this document (tags omitted). Residues count along the entry.
UniProt P18177: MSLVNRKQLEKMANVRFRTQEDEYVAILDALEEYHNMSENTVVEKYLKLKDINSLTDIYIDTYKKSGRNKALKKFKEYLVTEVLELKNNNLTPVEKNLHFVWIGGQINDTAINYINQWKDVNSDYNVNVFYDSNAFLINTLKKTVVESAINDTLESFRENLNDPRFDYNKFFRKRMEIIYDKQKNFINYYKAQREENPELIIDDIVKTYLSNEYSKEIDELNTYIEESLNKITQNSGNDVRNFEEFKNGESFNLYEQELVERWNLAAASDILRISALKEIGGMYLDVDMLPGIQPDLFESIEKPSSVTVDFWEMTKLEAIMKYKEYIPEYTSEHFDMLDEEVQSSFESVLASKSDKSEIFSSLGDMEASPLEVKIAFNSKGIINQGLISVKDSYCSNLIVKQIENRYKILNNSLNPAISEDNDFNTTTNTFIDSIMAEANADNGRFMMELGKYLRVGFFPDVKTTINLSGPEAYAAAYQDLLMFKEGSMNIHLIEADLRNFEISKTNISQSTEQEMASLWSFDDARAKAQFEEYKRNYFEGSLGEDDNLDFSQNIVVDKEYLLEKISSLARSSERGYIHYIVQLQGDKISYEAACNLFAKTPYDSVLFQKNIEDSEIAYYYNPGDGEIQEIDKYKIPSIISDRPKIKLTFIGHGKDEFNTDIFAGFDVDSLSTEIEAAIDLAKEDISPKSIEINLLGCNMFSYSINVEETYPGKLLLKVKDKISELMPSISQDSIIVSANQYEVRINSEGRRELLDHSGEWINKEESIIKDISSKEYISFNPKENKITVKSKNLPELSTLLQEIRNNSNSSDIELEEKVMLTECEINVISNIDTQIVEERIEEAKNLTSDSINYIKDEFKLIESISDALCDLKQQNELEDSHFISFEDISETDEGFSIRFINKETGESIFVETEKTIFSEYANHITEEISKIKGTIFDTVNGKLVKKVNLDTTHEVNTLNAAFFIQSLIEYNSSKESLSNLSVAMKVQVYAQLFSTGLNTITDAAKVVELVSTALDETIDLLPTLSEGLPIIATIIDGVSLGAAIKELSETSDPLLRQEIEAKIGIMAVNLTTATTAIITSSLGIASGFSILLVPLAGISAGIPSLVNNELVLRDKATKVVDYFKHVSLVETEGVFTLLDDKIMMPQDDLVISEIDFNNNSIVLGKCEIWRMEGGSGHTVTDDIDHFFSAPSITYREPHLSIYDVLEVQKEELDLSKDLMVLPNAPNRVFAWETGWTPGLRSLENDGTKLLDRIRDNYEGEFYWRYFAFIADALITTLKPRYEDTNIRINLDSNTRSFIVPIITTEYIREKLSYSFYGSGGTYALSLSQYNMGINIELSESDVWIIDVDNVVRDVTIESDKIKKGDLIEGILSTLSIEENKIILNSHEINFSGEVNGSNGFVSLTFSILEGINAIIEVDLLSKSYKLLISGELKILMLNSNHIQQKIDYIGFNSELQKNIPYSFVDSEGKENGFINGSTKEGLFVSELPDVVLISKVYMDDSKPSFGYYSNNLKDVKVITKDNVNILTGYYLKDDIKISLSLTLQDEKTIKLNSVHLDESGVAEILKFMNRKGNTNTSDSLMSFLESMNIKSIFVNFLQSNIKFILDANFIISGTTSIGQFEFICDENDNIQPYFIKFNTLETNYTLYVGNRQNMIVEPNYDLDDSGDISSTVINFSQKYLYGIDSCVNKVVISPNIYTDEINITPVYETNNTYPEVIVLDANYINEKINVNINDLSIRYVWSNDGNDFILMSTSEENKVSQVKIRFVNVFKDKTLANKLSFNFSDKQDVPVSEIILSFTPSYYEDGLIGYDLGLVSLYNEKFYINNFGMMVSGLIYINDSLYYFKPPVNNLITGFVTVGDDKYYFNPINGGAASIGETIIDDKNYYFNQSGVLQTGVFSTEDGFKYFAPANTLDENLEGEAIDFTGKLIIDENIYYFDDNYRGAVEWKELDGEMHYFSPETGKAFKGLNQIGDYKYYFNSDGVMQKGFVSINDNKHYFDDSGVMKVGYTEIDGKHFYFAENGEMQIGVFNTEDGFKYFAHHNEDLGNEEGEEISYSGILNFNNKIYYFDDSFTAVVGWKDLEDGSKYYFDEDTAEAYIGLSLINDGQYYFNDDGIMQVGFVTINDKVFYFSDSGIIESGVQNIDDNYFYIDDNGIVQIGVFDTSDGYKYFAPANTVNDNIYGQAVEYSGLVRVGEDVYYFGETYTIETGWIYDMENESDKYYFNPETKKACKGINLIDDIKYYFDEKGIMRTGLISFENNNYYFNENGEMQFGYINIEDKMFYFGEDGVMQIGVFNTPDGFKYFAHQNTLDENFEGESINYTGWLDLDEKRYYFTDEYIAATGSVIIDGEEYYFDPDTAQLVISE
UniProt P01009, residues 25-418: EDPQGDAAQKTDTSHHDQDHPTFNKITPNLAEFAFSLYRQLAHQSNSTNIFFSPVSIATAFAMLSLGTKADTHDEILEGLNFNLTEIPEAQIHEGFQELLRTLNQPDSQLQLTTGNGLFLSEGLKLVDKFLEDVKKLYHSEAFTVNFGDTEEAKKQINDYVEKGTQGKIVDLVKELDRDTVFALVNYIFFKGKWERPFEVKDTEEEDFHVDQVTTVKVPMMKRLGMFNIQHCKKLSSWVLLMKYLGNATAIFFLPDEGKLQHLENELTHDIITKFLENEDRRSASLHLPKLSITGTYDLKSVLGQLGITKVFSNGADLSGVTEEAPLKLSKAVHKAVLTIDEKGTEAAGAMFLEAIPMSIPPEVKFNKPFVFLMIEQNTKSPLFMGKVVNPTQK

Molecular target: Clostridioides difficile toxin B (TcdB), native, from strain VPI 10463 (Clostridioides difficile VPI 10463) (UniProt P18177)
Assay: co-sedimentation; both purified

Row | Molecule | binding
1 | human alpha-1 antitrypsin (α1AT), Prolastin (from UniProt P01009 25-418) | no binding
2 | AFTCHCRRSCYSTEYSYGTCTVMGINHRFCCL (peptide, UniProt Q01524 69-100) [α-defensin-6] | binds
